# Laboratory results: US20070071762A1, “COMPREHENSIVE DIAGNOSTIC TESTING PROCEDURES FOR PERSONALIZED ANTICANCER CHEMOTHERAPY (PAC)” (CCC Diagnostics, LLC, priority 2005, published 2007)
# Where two headings read alike, the source gives them in different places.
# How the values were obtained:
# MDA-MB231 cells = experiment: cells; conditions: Homo sapiens, MDA-MB-231, 72 h
# T47D cells = experiment: WST-8 growth inhibition of cultured breast cancer cells; type: cell-based; conditions: Homo sapiens, Tamoxifen, 0.5% FCS, 72 hours post treatment
# Description: (§1) In another example, the expression of thymidylate synthase (TS) was correlated with the response of breast cancer cells to the chemotherapeutic drug 5-fluorouracil (5-FU). TS is a key enzyme in DNA biosynthesis and has been postulated to play a major role in predicting the response to 5-FU based chemotherapy. Experiments were conducted to examine this relationship. […] Doses ranged from 5-300 μg/ml.
# SKBR-3 cells = experiment: as above; type: cell-based; conditions: Homo sapiens, SK-BR-3, Tamoxifen, SKBR3 cells, 0.5% FCS, 72 hours post treatment
# Description: as §1
# HCC 202 cells = experiment: as above; type: cell-based; conditions: Homo sapiens, HCC202, Tamoxifen, 0.5% FCS, 72 hours post treatment
# Description: as §1
# HCC 2218 cells = experiment: as above; type: cell-based; conditions: Homo sapiens, Tamoxifen, HCC2218 cells, 0.5% FCS, 72 hours post treatment
# Description: as §1
# HCC 38 cells = experiment: as above; type: cell-based; conditions: Homo sapiens, Tamoxifen, HCC38 cells, 0.5% FCS, 72 hours post treatment
# Description: as §1
# MCF-7 cells = experiment: as above; type: cell-based; conditions: Homo sapiens, MCF7, Tamoxifen, 0.5% FCS, 72 hours post treatment
# Description: as §1
structure (smiles),measurement,setting,value
"CC/C(=C(\c1ccccc1)c1ccc(OCCN(C)C)cc1)c1ccccc1 [Tamoxifen, tamoxifen]",IC50,MDA-MB231 cells; read-out: IC50-1,42.5 µg/mL
same,IC50,MDA-MB231 cells; read-out: IC50-2,42.5 µg/mL
same,IC50,T47D cells; read-out: IC50-1,28.3 µg/mL
same,IC50,T47D cells; read-out: IC50-2,21.8 µg/mL
same,IC50,SKBR-3 cells; read-out: IC50-1,41.6 µg/mL
same,IC50,SKBR-3 cells; read-out: IC50-2,35 µg/mL
same,IC50,HCC 202 cells; read-out: IC50-1,> 50 µg/mL
same,IC50,HCC 202 cells; read-out: IC50-2,> 50 µg/mL
same,IC50,HCC 2218 cells; read-out: IC50-1,> 50 µg/mL
same,IC50,HCC 2218 cells; read-out: IC50-2,> 50 µg/mL
same,IC50,HCC 38 cells; read-out: IC50-1,> 50 µg/mL
same,IC50,HCC 38 cells; read-out: IC50-2,> 50 µg/mL
same,IC50,MCF-7 cells; read-out: IC50-1,9.8 µg/mL
same,IC50,MCF-7 cells; read-out: IC50-2,13 µg/mL
